Measurements published in patent US7919616B2, “Carbapenem compound” (priority 2005, dated 2011).
For at least one compound, name, drawing or mass did not settle the structure.

Assay: Stability test of compound (Ia) in crystalline state (purity by HPLC on storage)
Type: physicochemical
Conditions: crystalline form
Protocol: Stability Test of Compound (Ia) in Crystalline State
About 2 g of the compound (Ia) in a crystalline form which was obtained in the same way as Example 1 was placed in sample bottles, and the sample bottles were stored at room temperature (about 20° C.) and in a room maintained at a temperature of about 40° C. Taking the original purity as 100%, after every several number of days, the purity of the compound (Ia) was measured using high-performance liquid chromatography (HPLC). The HPLC measurement conditions are shown below.
Solvent delivery system: LC-10A (manufactured by Shimadzu Corporation)
UV, VIS detector: SPD-10A (manufactured by Shimadzu Corporation)
Detection wavelength: 215 nm
Column heater: Sugai U-620 (used at 40° C., Sugai Chemical Industry Co., Ltd.)
Column: Inertsil® ODS-2 (4.6 mm diameter×250 mm length, GL Sciences, Inc.)

Measured: purity (HPLC), original purity taken as 100%

C=CCOC(=O)C1=C(OP(=O)(OCC(Cl)(Cl)Cl)OCC(Cl)(Cl)Cl)[C@H](C)[C@@H]2[C@@H]([C@@H](C)O)C(=O)N12 [compound (Ia), allyl-(1R,5R,6S)-2-[bis(2,2,2-trichloroethyl)phosphoryloxy]-6-[(R)-1-hydroxyethyl]-1-methyl-carbapenem-3-carboxylate]
100%: stored at 20° C. (room temperature), 6 days | stored at 20° C. (room temperature), 17 days | stored at 20° C. (room temperature), 21 days | stored at 20° C. (room temperature), 31 days | stored at 40° C., 6 days | stored at 40° C., 17 days | stored at 40° C., 21 days | stored at 40° C., 31 days
